The data set deals with OCT4 + SOX2. The data set is described as follows: EMSA. To be noted: 12.5 mM K-Hepes pH 7.6, 50 mM NaCl, 1 mM MgCl2, 10% glycerol, 0.1% NP-40, 0.1 mg/mL BSA, 1 mM DTT, 1 ug/uL poly dG:dC, 2 nM probe, 30 C 15 min, 4% acrylamide gel, recombinant protein, protein details: 6xHis (pSKB3-6H-TEV),6xHis (pSKB3-6H-TEV), label: Cy5 on strand 2 (extended primer S1). A general note: In EMSA bound probe runs differently from free probe, usually more slowly.

The comparison behind a weaker result is the experiment's own reference, which may not be listed here.

With “GTTACTCTGCAGCTACCTTTGCATATCAAATGCCTTGGTGAGACTGG (double strand) [Klf4-E1 OS site probe]”, for the setting “19 nM OCT4, 16 nM SOX2, most shifted DNA bound only by OCT4”, the binding result is given as “binds more weakly”.
As to “GTTACTCTGCAGCTACATCTTCATATAAATGGCCTTGGTGAGACTGG (double strand) [Klf4-E2 OS site probe]”, where the note is “19 nM OCT4, 16 nM SOX2”, the binding result is on record as “binds more weakly”.

These data come from publication PMC11441684, “A suboptimal OCT4-SOX2 binding site facilitates the naïve-state specific function of a Klf4 enhancer”.
